Laboratory results published in article doi:10.1101/2020.09.02.271551.
These are yes or no findings as the source states them, for the method shown. Some binding calls cover weakened binding; strength is not graded here.

Assays:
[1] = target: LONG HYPOCOTYL IN FR 1 (HFR1) of Arabidopsis thaliana (Arabidopsis thaliana) (UniProt Q9FE22); assay: two-hybrid
[2] = target: T1, PHYTOCHROME … FACTOR 7 (PIF7) of Arabidopsis thaliana (Arabidopsis thaliana) (UniProt Q570R7); assay: two-hybrid
T1 sequence: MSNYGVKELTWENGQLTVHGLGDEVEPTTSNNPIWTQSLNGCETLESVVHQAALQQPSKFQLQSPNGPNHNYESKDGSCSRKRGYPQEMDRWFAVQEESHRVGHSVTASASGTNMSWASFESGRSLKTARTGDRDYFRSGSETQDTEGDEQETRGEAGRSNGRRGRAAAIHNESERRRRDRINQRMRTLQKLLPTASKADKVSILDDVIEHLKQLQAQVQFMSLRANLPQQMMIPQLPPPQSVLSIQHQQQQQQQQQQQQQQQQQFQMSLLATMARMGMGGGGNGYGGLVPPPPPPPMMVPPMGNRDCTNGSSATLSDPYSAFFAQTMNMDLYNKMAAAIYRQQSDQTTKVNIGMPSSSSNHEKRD

B1: LONG HYPOCOTYL IN FR 1 (HFR1) of Arabidopsis thaliana (protein, UniProt Q9FE22 1-292)
chain: MSNNQAFMELGWRNDVGSLAVKDQGMMSERARSDEDRLINGLKWGYGYFDHDQTDNYLQIVPEIHKEVENAKEDLLVVVPDEHSETDDHHHIKDFSERSDHRFYLRNKHENPKKRRIQVLSSDDESEEFTREVPSVTRKGSKRRRRDEKMSNKMRKLQQLVPNCHKTDKVSVLDKTIEYMKNLQLQLQMMSTVGVNPYFLPATLGFGMHNHMLTAMASAHGLNPANHMMPSPLIPALNWPLPPFTNISFPHSSSQSLFLTTSSPASSPQSLHGLVPYFPSFLDFSSHAMRRL
binding [1]: binds | binding [2]: binds
